Data as given in PubChem BioAssay AID1224830 (NIAID, 2016)

Purpose: 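Host factors that control LPS-induced TNF expression in human macrophages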 (primary screen)
System: human THP-1 monocytic leukaemia cells, TNF dual-luciferase reporter clone, PMA-differentiated to macrophage-like cells
Reagents: siRNA pool against human genes, 50 nM
Timing: LPS for 4 h, given about 3 days after siRNA transfection
Challenge: bacterial LPS (TLR4 ligand), 10 ng/ml
Detection: 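Ratio of firefly to renilla light, scaled to the plate median and expressed as a robust z-score per replicate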
Scale: TNF reporter robust z-score: higher = stronger TNF reporter response to LPS
Rule for the call: 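Each well counts as active if its z-score is over 2.8 or under -1.5; controls are left without a call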
Shown is a random part of about 18,000 deposited reagents. About 2,900 of them (16%) were called active. 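Calls are made per well; low scores hint the gene aids the LPS response, high scores that it dampens it.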 Repeated entries: four replicate wells of each siRNA pool.

no.	gene	TNF reporter robust z-score	outcome
1	RIOX1 (ribosomal oxygenase 1)	1.32	inactive
2	RIOX1 (ribosomal oxygenase 1)	-0.08	inactive
3	RIOX1 (ribosomal oxygenase 1)	0.68	inactive
4	RIOX1 (ribosomal oxygenase 1)	0.62	inactive
5	ADRA1D (adrenoceptor alpha 1D)	0.11	inactive
6	ADRA1D (adrenoceptor alpha 1D)	1.35	inactive
7	ADRA1D (adrenoceptor alpha 1D)	1.36	inactive
8	ADRA1D (adrenoceptor alpha 1D)	1.13	inactive
9	DQX1 (DEAQ-box RNA dependent ATPase 1)	0.73	inactive
10	DQX1 (DEAQ-box RNA dependent ATPase 1)	1.73	inactive
11	DQX1 (DEAQ-box RNA dependent ATPase 1)	0.42	inactive
12	DQX1 (DEAQ-box RNA dependent ATPase 1)	0.39	inactive
13	TRPC6	0.58	inactive
14	TRPC6	-0.77	inactive
15	TRPC6	-0.98	inactive
16	TRPC6	-1.05	inactive
17	FBXO24 (F-box protein 24)	0.29	inactive
18	FBXO24 (F-box protein 24)	-1.93	active
19	FBXO24 (F-box protein 24)	1.1	inactive
20	FBXO24 (F-box protein 24)	3.02	active
21	MS4A6A (membrane spanning 4-domains A6A)	1.17	inactive
22	MS4A6A (membrane spanning 4-domains A6A)	3.31	active
23	MS4A6A (membrane spanning 4-domains A6A)	0.33	inactive
24	MS4A6A (membrane spanning 4-domains A6A)	2.72	inactive
25	MYEOV (myeloma overexpressed)	1.17	inactive
26	MYEOV (myeloma overexpressed)	-0.54	inactive
27	MYEOV (myeloma overexpressed)	-1.2	inactive
28	MYEOV (myeloma overexpressed)	-0.31	inactive
29	GNS (glucosamine (N-acetyl)-6-sulfatase)	1.33	inactive
30	GNS (glucosamine (N-acetyl)-6-sulfatase)	0.9	inactive
31	GNS (glucosamine (N-acetyl)-6-sulfatase)	0.97	inactive
32	GNS (glucosamine (N-acetyl)-6-sulfatase)	0.52	inactive
33	TCEAL2 (transcription elongation factor A like 2)	0	inactive
34	TCEAL2 (transcription elongation factor A like 2)	1.75	inactive
35	TCEAL2 (transcription elongation factor A like 2)	1.53	inactive
36	TCEAL2 (transcription elongation factor A like 2)	2.96	active
37	ATG101 (autophagy related 101)	0.45	inactive
38	ATG101 (autophagy related 101)	0.22	inactive
39	ATG101 (autophagy related 101)	0.21	inactive
40	ATG101 (autophagy related 101)	0.58	inactive
41	SEC61B (SEC61 translocon subunit beta)	0.03	inactive
42	SEC61B (SEC61 translocon subunit beta)	0.57	inactive
43	SEC61B (SEC61 translocon subunit beta)	-1.85	active
44	SEC61B (SEC61 translocon subunit beta)	-0.93	inactive
45	DENND4C (DENN domain containing 4C)	-0.24	inactive
46	DENND4C (DENN domain containing 4C)	0.41	inactive
47	DENND4C (DENN domain containing 4C)	0.36	inactive
48	DENND4C (DENN domain containing 4C)	0.67	inactive
49	ALDOC (aldolase, fructose-bisphosphate C)	3.44	active
50	ALDOC (aldolase, fructose-bisphosphate C)	0.12	inactive
51	ALDOC (aldolase, fructose-bisphosphate C)	-0.62	inactive
52	ALDOC (aldolase, fructose-bisphosphate C)	-0.36	inactive
53	MROH7 (maestro heat like repeat family member 7)	-1.44	inactive
54	MROH7 (maestro heat like repeat family member 7)	-1.23	inactive
55	MROH7 (maestro heat like repeat family member 7)	-0.39	inactive
56	MROH7 (maestro heat like repeat family member 7)	-1.28	inactive
57	HSD17B13 (hydroxysteroid 17-beta dehydrogenase 13)	4.04	active
58	HSD17B13 (hydroxysteroid 17-beta dehydrogenase 13)	3.41	active
59	HSD17B13 (hydroxysteroid 17-beta dehydrogenase 13)	3.8	active
60	HSD17B13 (hydroxysteroid 17-beta dehydrogenase 13)	3.69	active
61	PTPN4 (protein tyrosine phosphatase non-receptor type 4)	1.08	inactive
62	PTPN4 (protein tyrosine phosphatase non-receptor type 4)	0.44	inactive
63	PTPN4 (protein tyrosine phosphatase non-receptor type 4)	-1.34	inactive
64	PTPN4 (protein tyrosine phosphatase non-receptor type 4)	-1	inactive
65	GARIN1A (golgi associated RAB2 interactor 1A)	-0.45	inactive
66	GARIN1A (golgi associated RAB2 interactor 1A)	-0.35	inactive
67	GARIN1A (golgi associated RAB2 interactor 1A)	0.16	inactive
68	GARIN1A (golgi associated RAB2 interactor 1A)	0.21	inactive
69	BOD1 (biorientation of chromosomes in cell division 1)	0.02	inactive
70	BOD1 (biorientation of chromosomes in cell division 1)	0.97	inactive
71	BOD1 (biorientation of chromosomes in cell division 1)	0.33	inactive
72	BOD1 (biorientation of chromosomes in cell division 1)	-0.07	inactive
73	SLC25A25	-0.14	inactive
74	SLC25A25	-0.38	inactive
75	SLC25A25	-0.28	inactive
76	SLC25A25	-0.77	inactive
77	GPR158 (G protein-coupled receptor 158)	-0.95	inactive
78	GPR158 (G protein-coupled receptor 158)	-0.02	inactive
79	GPR158 (G protein-coupled receptor 158)	-0.26	inactive
80	GPR158 (G protein-coupled receptor 158)	-0.29	inactive
81	CCDC30 (coiled-coil domain containing 30)	1.57	inactive
82	CCDC30 (coiled-coil domain containing 30)	1.06	inactive
83	CCDC30 (coiled-coil domain containing 30)	-0.34	inactive
84	CCDC30 (coiled-coil domain containing 30)	0.73	inactive
85	PRND (prion like protein doppel)	-2.11	active
86	PRND (prion like protein doppel)	-2.06	active
87	PRND (prion like protein doppel)	-2.04	active
88	EIF2B1 (eukaryotic translation initiation factor 2B subunit alpha)	1.82	inactive
89	EIF2B1 (eukaryotic translation initiation factor 2B subunit alpha)	0.23	inactive
90	EIF2B1 (eukaryotic translation initiation factor 2B subunit alpha)	0.45	inactive
91	EIF2B1 (eukaryotic translation initiation factor 2B subunit alpha)	0.2	inactive
92	SPANXN1 (SPANX family member N1)	-0.73	inactive
93	SPANXN1 (SPANX family member N1)	-0.52	inactive
94	SPANXN1 (SPANX family member N1)	-1.12	inactive
95	SPANXN1 (SPANX family member N1)	-1.16	inactive
96	SLC25A31	-0.06	inactive
97	SLC25A31	0.15	inactive
98	SLC25A31	-0.87	inactive
99	SLC25A31	0.29	inactive
100	THAP11 (THAP domain containing 11)	-0.54	inactive
101	THAP11 (THAP domain containing 11)	-0.25	inactive
102	THAP11 (THAP domain containing 11)	0.08	inactive
103	THAP11 (THAP domain containing 11)	0.3	inactive
104	SERPINB3 (serpin family B member 3)	0.25	inactive
105	SERPINB3 (serpin family B member 3)	-0.17	inactive
106	SERPINB3 (serpin family B member 3)	-0.82	inactive
107	SERPINB3 (serpin family B member 3)	0.77	inactive
108	FUOM (fucose mutarotase)	-0.09	inactive
109	FUOM (fucose mutarotase)	0.4	inactive
110	FUOM (fucose mutarotase)	0.12	inactive
111	FUOM (fucose mutarotase)	0.8	inactive

Ordered by “TNF reporter robust z-score” (highest first): 16 of the entries above.
gene	TNF reporter robust z-score	outcome
EIF2B1 (eukaryotic translation initiation factor 2B subunit alpha)	1.82	inactive
CCDC30 (coiled-coil domain containing 30)	1.57	inactive
CCDC30 (coiled-coil domain containing 30)	1.06	inactive
CCDC30 (coiled-coil domain containing 30)	0.73	inactive
EIF2B1 (eukaryotic translation initiation factor 2B subunit alpha)	0.45	inactive
EIF2B1 (eukaryotic translation initiation factor 2B subunit alpha)	0.23	inactive
GPR158 (G protein-coupled receptor 158)	-0.02	inactive
GPR158 (G protein-coupled receptor 158)	-0.26	inactive
SLC25A25	-0.28	inactive
GPR158 (G protein-coupled receptor 158)	-0.29	inactive
CCDC30 (coiled-coil domain containing 30)	-0.34	inactive
SLC25A25	-0.77	inactive
GPR158 (G protein-coupled receptor 158)	-0.95	inactive
PRND (prion like protein doppel)	-2.04	active
PRND (prion like protein doppel)	-2.06	active
PRND (prion like protein doppel)	-2.11	active
